Test results as given in the supplement of paper PMC8728848.
The list shows a part of the results.

Assays:
Assay in all cases: glycan array binding signal (z-score within array); higher = stronger binding
Conditions in all cases: glycan notation: IUPAC condensed, linker removed
[1] = biological target: Neu5Ac(a2-3)Gal(b1-4)GlcNAc(b1-2)[Neu5Ac(a2-3)Gal(b1-4)GlcNAc(b1-4)]Man(a1-3)[GlcNAc(b1-4)][Neu5Ac(a2-3)Gal(b1-4)GlcNAc(b1-2)[Neu5Ac(a2-3)Gal(b1-4)GlcNAc(b1-6)]Man(a1-6)]Man(b1-4)GlcNAc(b1-4)GlcNAc
Procedure, shortened: (§1)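 The Consortium for Functional Glycomics database supplied 3228 glycan arrays, of which those lacking an available protein sequence were dropped. The binding signal, a within-array Z-score, was averaged across arrays of the same protein sequence and across linkers. Negative scores can be read as non-binding.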

[2] = biological target: Neu5Ac(a2-3)Gal(b1-4)GlcNAc(b1-2)[Neu5Ac(a2-3)Gal(b1-4)GlcNAc(b1-4)]Man(a1-3)[GlcNAc(b1-4)][Neu5Ac(a2-3)Gal(b1-4)GlcNAc(b1-4)Man(a1-6)]Man(b1-4)GlcNAc(b1-4)GlcNAc
Procedure, shortened: as §1

[3] = biological target: Neu5Ac(a2-3)Gal(b1-4)GlcNAc(b1-2)[Neu5Ac(a2-3)Gal(b1-4)GlcNAc(b1-6)]Man(a1-6)[Neu5Ac(a2-3)Gal(b1-4)GlcNAc(b1-2)Man(a1-3)][GlcNAc(b1-4)]Man(b1-4)GlcNAc(b1-4)GlcNAc
Procedure, shortened: as §1

[4] = biological target: Neu5Ac(a2-3)Gal(b1-4)GlcNAc(b1-3)Gal
Procedure, shortened: as §1

[5] = biological target: Neu5Ac(a2-3)Gal(b1-4)GlcNAc(b1-3)Gal(b1-3)GlcNAc
Procedure, shortened: as §1

[6] = biological target: Neu5Ac(a2-3)Gal(b1-4)GlcNAc(b1-3)Gal(b1-4)GlcNAc
Procedure, shortened: as §1

[7] = biological target: Neu5Ac(a2-3)Gal(b1-4)GlcNAc(b1-3)Gal(b1-4)GlcNAc(b1-2)Man(a1-3)[Neu5Ac(a2-3)Gal(b1-4)GlcNAc(b1-3)Gal(b1-4)GlcNAc(b1-2)Man(a1-6)]Man(b1-4)GlcNAc(b1-4)GlcNAc
Procedure, shortened: as §1

[8] = biological target: Neu5Ac(a2-3)Gal(b1-4)GlcNAc(b1-3)Gal(b1-4)GlcNAc(b1-3)Gal(b1-4)GlcNAc
Procedure, shortened: as §1

[9] = biological target: Neu5Ac(a2-3)Gal(b1-4)GlcNAc(b1-3)Gal(b1-4)GlcNAc(b1-3)Gal(b1-4)GlcNAc(b1-2)Man(a1-3)[Neu5Ac(a2-3)Gal(b1-4)GlcNAc(b1-3)Gal(b1-4)GlcNAc(b1-3)Gal(b1-4)GlcNAc(b1-2)Man(a1-6)]GalNAc
Procedure, shortened: as §1

[10] = biological target: Neu5Ac(a2-3)Gal(b1-4)GlcNAc(b1-3)Gal(b1-4)GlcNAc(b1-3)GalNAc
Procedure, shortened: as §1

[11] = biological target: Neu5Ac(a2-3)Gal(b1-4)GlcNAc(b1-3)Gal(b1-4)GlcNAc(b1-3)[Neu5Ac(a2-3)Gal(b1-4)GlcNAc(b1-3)Gal(b1-4)GlcNAc(b1-6)]GalNAc
Procedure, shortened: as §1

[12] = biological target: Neu5Ac(a2-3)Gal(b1-4)GlcNAc(b1-3)Gal(b1-4)GlcNAc(b1-6)[Gal(b1-3)]GalNAc
Procedure, shortened: as §1

[13] = biological target: Neu5Ac(a2-3)Gal(b1-4)GlcNAc(b1-3)Gal(b1-4)[Fuc(a1-3)]GlcNAc
Procedure, shortened: as §1

[14] = biological target: Neu5Ac(a2-3)Gal(b1-4)GlcNAc(b1-3)GalNAc
Procedure, shortened: as §1

[15] = biological target: Neu5Ac(a2-3)Gal(b1-4)GlcNAc(b1-3)[Neu5Ac(a2-3)Gal(b1-4)GlcNAc(b1-6)]GalNAc
Procedure, shortened: as §1

[16] = biological target: Neu5Ac(a2-3)Gal(b1-4)GlcNAc(b1-6)GalNAc
Procedure, shortened: as §1

[17] = biological target: Neu5Ac(a2-3)Gal(b1-4)GlcNAc(b1-6)[Gal(b1-3)]GalNAc
Procedure, shortened: as §1

[18] = biological target: Neu5Ac(a2-3)Gal(b1-4)GlcNAc(b1-6)[Neu5Ac(a2-3)Gal(b1-3)]GalNAc
Procedure, shortened: as §1

[19] = biological target: Neu5Ac(a2-3)Gal(b1-4)GlcNAc6S
Procedure, shortened: as §1

[20] = biological target: Neu5Ac(a2-3)Gal(b1-4)[Fuc(a1-3)]GlcNAc
Procedure, shortened: as §1

[21] = biological target: Neu5Ac(a2-3)Gal(b1-4)[Fuc(a1-3)]GlcNAc(b1-2)Man
Procedure, shortened: as §1

[22] = biological target: Neu5Ac(a2-3)Gal(b1-4)[Fuc(a1-3)]GlcNAc(b1-3)Gal
Procedure, shortened: as §1

[23] = biological target: Neu5Ac(a2-3)Gal(b1-4)[Fuc(a1-3)]GlcNAc(b1-3)Gal(b1-4)GlcNAc
Procedure, shortened: as §1

[24] = biological target: Neu5Ac(a2-3)Gal(b1-4)[Fuc(a1-3)]GlcNAc(b1-3)Gal(b1-4)[Fuc(a1-3)]GlcNAc(b1-3)Gal(b1-4)[Fuc(a1-3)]GlcNAc
Procedure, shortened: as §1

[25] = biological target: Neu5Ac(a2-3)Gal(b1-4)[Fuc(a1-3)]GlcNAc(b1-3)GalNAc
Procedure, shortened: as §1

[26] = biological target: Neu5Ac(a2-3)Gal(b1-4)[Fuc(a1-3)]GlcNAc(b1-6)[Gal(b1-3)]GalNAc
Procedure, shortened: as §1

[27] = biological target: Neu5Ac(a2-3)Gal(b1-4)[Fuc(a1-3)]GlcNAc(b1-6)[Neu5Ac(a2-3)Gal(b1-3)]GalNAc
Procedure, shortened: as §1

[28] = biological target: Neu5Ac(a2-3)Gal(b1-4)[Fuc(a1-3)]GlcNAc6S
Procedure, shortened: as §1

[29] = biological target: Neu5Ac(a2-3)Gal6S(b1-4)GlcNAc
Procedure, shortened: as §1

[30] = biological target: Neu5Ac(a2-3)Gal6S(b1-4)[Fuc(a1-3)]GlcNAc
Procedure, shortened: as §1

Neu5Ac(a2-3)GalNAc = biological target: Neu5Ac(a2-3)GalNAc
Procedure, shortened: as §1

[31] = biological target: Neu5Ac(a2-3)GalNAc(b1-4)GlcNAc
Procedure, shortened: as §1

[32] = biological target: Neu5Ac(a2-3)[GalNAc(b1-4)]Gal(b1-4)Glc
Procedure, shortened: as §1

[33] = biological target: Neu5Ac(a2-3)[GalNAc(b1-4)]Gal(b1-4)GlcNAc
Procedure, shortened: as §1

[34] = biological target: Neu5Ac(a2-3)[GalNAc(b1-4)]Gal(b1-4)GlcNAc(b1-3)GalNAc
Procedure, shortened: as §1

[35] = biological target: Neu5Ac(a2-3)[Neu5Ac(a2-6)]GalNAc
Procedure, shortened: as §1

Neu5Ac(a2-6)Gal = biological target: Neu5Ac(a2-6)Gal
Procedure, shortened: as §1

[36] = biological target: Neu5Ac(a2-6)Gal(b1-3)GlcNAc(b1-3)[Gal(b1-4)GlcNAc(b1-6)]Gal(b1-4)Glc
Procedure, shortened: as §1

Neu5Ac(a2-6)Gal(b1-4)Glc = biological target: Neu5Ac(a2-6)Gal(b1-4)Glc
Procedure, shortened: as §1

[37] = biological target: Neu5Ac(a2-6)Gal(b1-4)GlcNAc
Procedure, shortened: as §1

[38] = biological target: Neu5Ac(a2-6)Gal(b1-4)GlcNAc(b1-2)Man
Procedure, shortened: as §1

[39] = biological target: Neu5Ac(a2-6)Gal(b1-4)GlcNAc(b1-2)Man(a1-3)Man(b1-4)GlcNAc(b1-4)GlcNAc
Procedure, shortened: as §1

[40] = biological target: Neu5Ac(a2-6)Gal(b1-4)GlcNAc(b1-2)Man(a1-3)[Gal(b1-4)GlcNAc(b1-2)Man(a1-6)]Man(b1-4)GlcNAc(b1-4)GlcNAc
Procedure, shortened: as §1

[41] = biological target: Neu5Ac(a2-6)Gal(b1-4)GlcNAc(b1-2)Man(a1-3)[GlcNAc(b1-4)][Neu5Ac(a2-6)Gal(b1-4)GlcNAc(b1-2)Man(a1-6)]Man(b1-4)GlcNAc(b1-4)GlcNAc
Procedure, shortened: as §1

[42] = biological target: Neu5Ac(a2-6)Gal(b1-4)GlcNAc(b1-2)Man(a1-3)[Man(a1-6)]Man(b1-4)GlcNAc(b1-4)GlcNAc
Procedure, shortened: as §1

B1: Lb MiSSP8 (Laccaria bicolor) (protein)
chain: MYFHTLFACATLMLITTAHASPTVINSLDSRKADLNGDVEARHAADWRRDSDWRRDSDWRRDSDWRRDSD
glycan array binding signal (z-score) [1]: -0.502 | glycan array binding signal (z-score) [2]: -0.171 | glycan array binding signal (z-score) [3]: -0.281 | glycan array binding signal (z-score) [4]: -0.992 | glycan array binding signal (z-score) [5]: -0.958 | glycan array binding signal (z-score) [6]: -0.088 | glycan array binding signal (z-score) [7]: 0.071 | glycan array binding signal (z-score) [8]: -0.102 | glycan array binding signal (z-score) [9]: 2.06 | glycan array binding signal (z-score) [10]: -0.343 | glycan array binding signal (z-score) [11]: 0.664 | glycan array binding signal (z-score) [12]: -0.585 | glycan array binding signal (z-score) [13]: -0.668 | glycan array binding signal (z-score) [14]: -0.122 | glycan array binding signal (z-score) [15]: -0.323 | glycan array binding signal (z-score) [16]: -0.751 | glycan array binding signal (z-score) [17]: 3.01 | glycan array binding signal (z-score) [18]: -0.764 | glycan array binding signal (z-score) [19]: -0.702 | glycan array binding signal (z-score) [20]: -0.902 | glycan array binding signal (z-score) [21]: -0.827 | glycan array binding signal (z-score) [22]: -1.12 | glycan array binding signal (z-score) [23]: 1.91 | glycan array binding signal (z-score) [24]: 0.361 | glycan array binding signal (z-score) [25]: 2.11 | glycan array binding signal (z-score) [26]: 1.41 | glycan array binding signal (z-score) [27]: 1.07 | glycan array binding signal (z-score) [28]: -0.84 | glycan array binding signal (z-score) [29]: -1.06 | glycan array binding signal (z-score) [30]: -0.682 | glycan array binding signal (z-score) (Neu5Ac(a2-3)GalNAc): 1.65 | glycan array binding signal (z-score) [31]: -0.316 | glycan array binding signal (z-score) [32]: -0.827 | glycan array binding signal (z-score) [33]: -0.778 | glycan array binding signal (z-score) [34]: -0.557 | glycan array binding signal (z-score) [35]: 1.96 | glycan array binding signal (z-score) (Neu5Ac(a2-6)Gal): -0.405 | glycan array binding signal (z-score) [36]: -0.399 | glycan array binding signal (z-score) (Neu5Ac(a2-6)Gal(b1-4)Glc): -0.664 | glycan array binding signal (z-score) [37]: -0.623 | glycan array binding signal (z-score) [38]: -0.578 | glycan array binding signal (z-score) [39]: -0.426 | glycan array binding signal (z-score) [40]: 1.39 | glycan array binding signal (z-score) [41]: -0.647 | glycan array binding signal (z-score) [42]: -0.226
